Results as given in patent US20220202783A1, “Use Of ADAM9 Inhibitor As Immunomodulator” (China Medical University, priority 2019, published 2022).
Some of these results come from one statement about several compounds together.

Tested on: Bm7 lung cancer cells
Experiment: cytotoxicity assay, FIG. 1B and Table 2 summary
Assay type: cell-based
Details: 293, 231-brm, A549, H1299, TC1, Bm7brmx2, Bm7brmx2-1st, Bm7brmx2-2nd and PE10 WBC
Procedure: Please refer to FIG. 1A, FIG. 1B and Table 2, which show the analysis results of the compound of Formula (I) inhibiting ADAM9 activity. In FIG. 1A, Bm7 lung cancer cells were treated with the derivatives of the compound 6X-0310, and then cultured under anchorage-free culture condition. The expressions of ADAM9 and CDCP1 in Bm7 lung cancer cells were detected by Western blot, in which EF1α is an internal control, and mock represents Bm7 lung cancer cells without treatment. […] In the experiment, the compounds of Formula (I) of Example 1 to Example 32 were further performed cytotoxicity assay to measure the IC50 value of the compounds of Formula (I) of the present disclosure in lung cancer cell lines.

SMILES | toxic effects on tumor cells
COc1ccc(OC)c(/C=N/Nc2nc(CCN3C(=O)c4ccccc4C3=O)cs2)c1 [2X-0295] | have toxic effects
O=C1c2ccccc2C(=O)N1CCc1csc(Nc2ccc(Cl)c(Cl)c2)n1 [2X-0336] | have toxic effects
CSc1ccc(/C=C(/C#N)c2nc(CCN3C(=O)c4ccccc4C3=O)cs2)cc1 [4X-0296] | have toxic effects
N#C/C(=C/c1ccc(OCc2ccccc2)cc1)c1nc(CCN2C(=O)c3ccccc3C2=O)cs1 [4X-0301] | have toxic effects
N#C/C(=C/c1cccc(C(F)(F)F)c1)c1nc(CCN2C(=O)c3ccccc3C2=O)cs1 [4X-0302] | have toxic effects
CC(C)CN1CCCc2cc(/C=C(\C#N)c3nc(CCN4C(=O)c5ccccc5C4=O)cs3)ccc21 [4X-0311] | have toxic effects
N#C/C(=C\c1ccccc1Oc1ccc(Cl)cc1Cl)c1nc(CCN2C(=O)c3ccccc3C2=O)cs1 [4X-0312] | have toxic effects
N#C/C(=C\c1ccncc1)c1nc(CCN2C(=O)c3ccccc3C2=O)cs1 [4X-0314] | have toxic effects
COc1ccc(C(=O)Nc2nc(CCN3C(=O)c4ccccc4C3=O)cs2)cc1OC [5X-0314] | have toxic effects
O=C(Nc1nc(CCN2C(=O)c3ccccc3C2=O)cs1)c1ccc([N+](=O)[O-])cc1 [6X-0202] | have toxic effects
N#C/C(=C/c1cc([N+](=O)O)ccc1Sc1ccccn1)c1nc(CCN2C(=O)c3ccccc3C2=O)cs1 [6X-0229] | have toxic effects
N#C/C(=C\c1cccc2ccccc12)c1nc(CCN2C(=O)c3ccccc3C2=O)cs1 [6X-0309] | have toxic effects
N#C/C(=C\c1ccc(OCc2cccc(C(F)(F)F)c2)cc1)c1nc(CCN2C(=O)c3ccccc3C2=O)cs1 [6X-0310] | have toxic effects
N#C/C(=C\C=C\c1ccccc1)c1nc(CCN2C(=O)c3ccccc3C2=O)cs1 [6X-0311] | have toxic effects
O=C1c2ccccc2C(=O)N1CCc1csc(-c2ccccc2)n1 [11W-0296] | have toxic effects
O=C1c2ccccc2C(=O)N1CCc1csc(COc2cccc(C(F)(F)F)c2)n1 [12W-0232] | have toxic effects

SMILES | toxic effects on tumor cells
O=C1c2ccccc2C(=O)N1CCc1csc(COc2ccccc2Cl)n1 [12W-0264] | have toxic effects
O=C1c2ccccc2C(=O)N1CCc1csc(-c2ccccn2)n1 [12W-0266] | have toxic effects
O=C1c2ccccc2C(=O)N1CCc1csc(-c2ccc(F)cc2)n1 [12W-0272] | have toxic effects
Cc1ccc(-c2nc(CCN3C(=O)c4ccccc4C3=O)cs2)cc1 [12W-0274] | have toxic effects
O=C1c2ccccc2C(=O)N1CCc1csc(-c2cccc(F)c2)n1 [12W-0275] | have toxic effects
O=C1c2ccccc2C(=O)N1CCc1csc(-c2nc(CCN3C(=O)c4ccccc4C3=O)cs2)n1 [12W-0290] | have toxic effects
O=C1c2ccccc2C(=O)N1CCc1csc(OCc2cc(F)c(F)c(F)c2)n1 [13W-0300] | have toxic effects
O=C1c2ccccc2C(=O)N1CCc1csc(SCc2ccc(C(F)(F)F)cc2)n1 [13W-0301] | have toxic effects
O=C(c1nc(CCN2C(=O)c3ccccc3C2=O)cs1)C(O)c1cc2ccccc2o1 (stereo not shown) [13W-0302] | have toxic effects
O=C1c2ccccc2C(=O)N1CCc1csc(-c2cc3ccccc3[nH]2)n1 [13W-0303] | have toxic effects
O=C1c2ccccc2C(=O)N1CCc1csc(N2C(=O)c3ccccc3C2=O)n1 [13W-0305] | have toxic effects
O=C1c2ccccc2C(=O)N1CCc1csc(N2CCCCC2)n1 [13W-0306] | have toxic effects
O=C1CCC(=O)C1c1nc(CCN2C(=O)c3ccccc3C2=O)cs1 [13W-0307] | have toxic effects
O=C1c2ccccc2C(=O)N1CCc1csc(Nc2nc(CCN3C(=O)c4ccccc4C3=O)cs2)n1 [SW1] | have toxic effects
O=C(Nc1nc(CCN2C(=O)c3ccccc3C2=O)cs1)c1cc2ccccc2s1 [SW2] | have toxic effects
